In the experiment the target is CYP144A1-FLV (full-length 434 amino acid version of Mycobacterium tuberculosis cytochrome P450 CYP144A1) (Mycobacterium tuberculosis H37Rv) (UniProt P9WPL1). Description: SEC-MALS; both purified.

These are yes or no findings as the source states them, for the method shown. Tags and fused reporters may be left off the sequences shown.

B1: CYP144A1-FLV (full-length 434 amino acid version of Mycobacterium tuberculosis cytochrome P450 CYP144A1) (enzyme, UniProt P9WPL1 1-434)
chain: MRRSPKGSPGAVLDLQRRVDQAVSADHAELMTIAKDANTFFGAESVQDPYPLYERMRAAGSVHRIANSDFYAVCGWDAVNEAIGRPEDFSSNLTATMTYTAEGTAKPFEMDPLGGPTHVLATADDPAHAVHRKLVLRHLAAKRIRVMEQFTVQAADRLWVDGMQDGCIEWMGAMANRLPMMVVAELIGLPDPDIAQLVKWGYAATQLLEGLVENDQLVAAGVALMELSGYIFEQFDRAAADPRDNLLGELATACASGELDTLTAQVMMVTLFAAGGESTAALLGSAVWILATRPDIQQQVRANPELLGAFIEETLRYEPPFRGHYRHVRNATTLDGTELPADSHLLLLWGAANRDPAQFEAPGEFRLDRAGGKGHISFGKGAHFCVGAALARLEARIVLRLLLDRTSVIEAADVGGWLPSILVRRIERLELAVQ
Regarding B1, the binding result is “no binding (tested: 2 mg/ml)”.

Values taken from publication PMC4880925 (Scientific Reports, 2016).
